# Reference: PubChem BioAssay (EPA / NIEHS)
# The chains behind the UniProt entries cited, without tags or fusion partners. Where a name states a change or a piece, a line headed by the entry shows the natural chain unless it says otherwise.
# UniProt Q92731, whole entry, looked up: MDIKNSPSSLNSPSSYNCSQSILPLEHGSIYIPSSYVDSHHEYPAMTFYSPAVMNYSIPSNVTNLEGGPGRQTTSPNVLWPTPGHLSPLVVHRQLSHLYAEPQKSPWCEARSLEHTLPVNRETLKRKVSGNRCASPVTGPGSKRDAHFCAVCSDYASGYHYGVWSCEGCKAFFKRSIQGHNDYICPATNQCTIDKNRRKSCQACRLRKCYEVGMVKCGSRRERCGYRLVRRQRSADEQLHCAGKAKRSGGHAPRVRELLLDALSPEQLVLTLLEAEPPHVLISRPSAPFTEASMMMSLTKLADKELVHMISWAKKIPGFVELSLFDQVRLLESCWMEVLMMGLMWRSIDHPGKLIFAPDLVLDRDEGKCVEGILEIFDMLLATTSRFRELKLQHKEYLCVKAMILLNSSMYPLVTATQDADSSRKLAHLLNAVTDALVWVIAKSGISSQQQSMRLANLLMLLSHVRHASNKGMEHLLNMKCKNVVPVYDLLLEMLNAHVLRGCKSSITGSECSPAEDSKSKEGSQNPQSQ
# UniProt P37231: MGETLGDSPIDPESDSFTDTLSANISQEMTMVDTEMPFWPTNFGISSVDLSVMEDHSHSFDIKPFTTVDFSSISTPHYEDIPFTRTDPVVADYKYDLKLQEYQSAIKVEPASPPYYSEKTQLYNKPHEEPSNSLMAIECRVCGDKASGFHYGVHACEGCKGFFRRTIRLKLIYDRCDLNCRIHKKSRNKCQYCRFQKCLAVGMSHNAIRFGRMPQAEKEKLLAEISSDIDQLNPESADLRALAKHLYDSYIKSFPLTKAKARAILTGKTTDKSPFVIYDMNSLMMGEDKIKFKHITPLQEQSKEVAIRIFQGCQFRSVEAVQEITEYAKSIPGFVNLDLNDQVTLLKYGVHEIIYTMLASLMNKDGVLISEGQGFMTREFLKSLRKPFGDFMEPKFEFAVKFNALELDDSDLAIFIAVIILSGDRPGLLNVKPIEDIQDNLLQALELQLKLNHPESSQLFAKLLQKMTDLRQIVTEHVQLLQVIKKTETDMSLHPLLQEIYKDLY
# UniProt Q96RI1: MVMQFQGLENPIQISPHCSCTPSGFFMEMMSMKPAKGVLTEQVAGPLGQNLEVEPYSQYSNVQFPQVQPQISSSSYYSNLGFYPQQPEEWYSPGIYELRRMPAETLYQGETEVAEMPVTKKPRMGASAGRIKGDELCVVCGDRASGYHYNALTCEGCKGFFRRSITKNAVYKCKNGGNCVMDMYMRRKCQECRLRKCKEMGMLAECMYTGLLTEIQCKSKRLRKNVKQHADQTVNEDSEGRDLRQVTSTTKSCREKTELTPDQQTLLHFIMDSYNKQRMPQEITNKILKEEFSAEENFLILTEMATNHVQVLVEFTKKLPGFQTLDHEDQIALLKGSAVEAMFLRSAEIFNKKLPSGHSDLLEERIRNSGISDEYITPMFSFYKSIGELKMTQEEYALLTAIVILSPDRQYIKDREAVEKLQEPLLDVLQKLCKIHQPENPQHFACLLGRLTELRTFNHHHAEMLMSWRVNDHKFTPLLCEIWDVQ
# UniProt P21709: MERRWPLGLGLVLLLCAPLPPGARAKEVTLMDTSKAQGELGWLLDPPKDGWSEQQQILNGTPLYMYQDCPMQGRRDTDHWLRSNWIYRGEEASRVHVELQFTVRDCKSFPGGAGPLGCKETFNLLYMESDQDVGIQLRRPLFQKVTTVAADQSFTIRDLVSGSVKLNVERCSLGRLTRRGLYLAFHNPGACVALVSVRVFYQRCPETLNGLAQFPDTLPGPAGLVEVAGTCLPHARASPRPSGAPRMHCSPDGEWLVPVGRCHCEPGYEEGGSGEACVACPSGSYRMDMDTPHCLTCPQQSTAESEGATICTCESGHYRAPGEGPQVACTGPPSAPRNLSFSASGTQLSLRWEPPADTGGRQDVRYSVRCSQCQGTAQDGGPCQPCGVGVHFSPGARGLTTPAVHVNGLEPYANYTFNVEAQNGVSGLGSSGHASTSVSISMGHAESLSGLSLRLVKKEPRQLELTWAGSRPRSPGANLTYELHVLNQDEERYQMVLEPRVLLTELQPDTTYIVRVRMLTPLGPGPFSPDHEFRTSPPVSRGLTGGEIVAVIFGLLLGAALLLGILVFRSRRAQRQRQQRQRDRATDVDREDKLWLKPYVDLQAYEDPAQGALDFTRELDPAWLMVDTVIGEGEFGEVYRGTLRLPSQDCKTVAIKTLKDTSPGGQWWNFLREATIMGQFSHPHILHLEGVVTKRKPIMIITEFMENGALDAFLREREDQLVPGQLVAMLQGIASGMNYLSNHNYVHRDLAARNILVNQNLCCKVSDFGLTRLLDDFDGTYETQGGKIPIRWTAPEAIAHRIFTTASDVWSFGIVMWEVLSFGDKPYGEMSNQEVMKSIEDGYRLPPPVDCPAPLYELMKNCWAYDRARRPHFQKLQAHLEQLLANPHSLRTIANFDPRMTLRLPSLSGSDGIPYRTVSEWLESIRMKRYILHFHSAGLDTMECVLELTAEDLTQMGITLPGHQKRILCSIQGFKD
# The shares of active, inactive and inconclusive entries below differ from those in the screen. Where the call is inconclusive, the potency comes from a doubtful curve fit. Active and inactive are the calls of the source. How the source made its calls: active means hit-call score of the fitted dose curve at least 0.9, where 1 is the maximum; inconclusive means response in the unintended direction; inactive means score below 0.9.
# Experiments:
# [1] = molecular target: Estrogen receptor beta (Homo sapiens) (UniProt Q92731); assay: OT_ER_ERbERb_0480: Odyssey Thera (OT) 8-hour HEK293T Protein-Complementation Assay for Estrogen Receptor-beta/-beta Homodimer (AID 2283357);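 further: active means signal gain over DMSO baseline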
# Summary of the method: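 Fluorescence intensity, nuclear for agonists and nuclear plus cytoplasmic for antagonists, was quantified by laser scanning cytometry versus vehicle after 8 h treatment. The cells were HEK293T stably carrying ER beta LBD fragment-complementation partners.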
# [2] = CCTE_Deisenroth_AIME_384WELL_CTox_Active: Cytotoxicity Assessment (CTOX) in CCTE's 384-well Estrogen Receptor Transactivation Assay with AIME metabolic competence (metabolism positive), Deisenroth Lab (AID 2284037);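 further: chemicals first conditioned 2 h by alginate-bound induced rat liver S9 before cells; activity means signal loss indicating cell death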
# Summary of the method: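 Chemicals pre-incubated 2 hours with alginate-immobilised phenobarbital/beta-naphthoflavone-induced male Sprague Dawley rat liver S9, then conditioned medium applied 24 hour to VM7Luc4E2 cells. Viability by fluorogenic protease substrate; 10-point series 0.002 - 200 uM.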
# [3] = CCTE_Deisenroth_AIME_384WELL_CTox_Inactive: Cytotoxicity Assessment (CTOX) in CCTE's 384-well Estrogen Receptor Transactivation Assay without AIME metabolic competence (metabolism negative), Deisenroth Lab (AID 2284039);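 further: cell viability via live-cell protease substrate cleaved to fluorescent probe; cells exposed 24 h to medium preincubated 2 h with alginate-water beads without S9; loss of fluorescence signal means loss of viability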
# Summary of the method: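 Fluorescence from a live-cell protease substrate, read after 24 h in VM7Luc4E2 cells, indicated viability. Test medium came from a 2 h AIME step without hepatic S9 (alginate-water microspheres); concentrations spanned 0.002 - 200 uM, single technical replicate per run.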
# [4] = molecular target: Peroxisome proliferator-activated receptor gamma (Homo sapiens) (UniProt P37231); assay: NVS_NR_hPPARg: NovaScreen (NVS) Nuclear Receptor Binding Assay for human Peroxisome Proliferator-activated Receptor gamma (PPARg) (AID 2283370)
# Summary of the method: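 FP read-out, 2 h post-dose, cell-free extracted receptor protein. Signal loss vs DMSO negative control = binding activity. Single-conc duplicate HTS at 25 uM; concentration-response follow-up for actives.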
# [5] = molecular target: Bile acid receptor (Homo sapiens) (UniProt Q96RI1); assay: OT_FXR_FXRSRC1_0480: Odyssey Thera (OT) 8-hour HEK293T Protein-Complementation Assay for Farnesoid X receptor/SRC-1 Co-activator (AID 2283383)
# Summary of the method: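 Human kidney HEK293T cells carried FXR/SRC-1 fragment-complementation constructs. Compounds were added and incubated 8 h. Reporter reassembly upon receptor–co-activator interaction was then quantified by fluorescence, with curves fitted in the positive direction relative to DMSO.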
# [6] = molecular target: Bile acid receptor (Homo sapiens) (UniProt Q96RI1); assay: OT_FXR_FXRSRC1_1440: Odyssey Thera (OT) 24-hour HEK293T Protein-Complementation Assay for Farnesoid X receptor/SRC-1 Co-activator (AID 2283384)
# Summary of the method: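 Compounds are applied to human kidney HEK293T cells expressing bait and prey fused to reporter protein fragments; after 24 h, reconstituted reporter fluorescence is measured. Activity is fitted as signal gain over DMSO.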
# [7] = Tanguay_ZF_120hpf_EYE_legacy: (Legacy) Oregon State University Tanguay Lab 120 Hour Post-fertilization zebrafish Assay for Eye Malformation (AID 2283636)
# Summary of the method: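 Dechorionated Tropical 5D zebrafish embryos, one per well from 6 hpf, static exposure to 120 hpf at 28C, 0.64% DMSO. Eye malformation scored present/absent by brightfield; dead embryos not scored.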
# [8] = Tanguay_ZF_120hpf_OTIC_legacy: (Legacy) Oregon State University Tanguay Lab 120 Hour Post-fertilization zebrafish Assay for Otic Vesicle Malformation (AID 2283639)
# Summary of the method: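 Embryos from 5D wild-type adults exposed in plates; DMSO 0.64% v/v final. Sealed, light-protected, 28C, static to 120 hpf. Otic vesicle malformation recorded as binary endpoint; gain-of-signal fitted vs DMSO.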
# [9] = Tanguay_ZF_120hpf_SOMI_legacy: (Legacy) Oregon State University Tanguay Lab 120 Hour Post-fertilization zebrafish Assay for Somite Malformation (AID 2283647)
# Summary of the method: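 Binary brightfield scoring of somite defects at 120 hpf in 5D wild-type larvae; one dechorionated embryo per well, static exposure from 6 hpf, 28C, sealed and dark. Final DMSO 0.64%; trimethyltin chloride 5uM positive control.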
# [10] = Tanguay_ZF_120hpf_CIRC_legacy: (Legacy) Oregon State University Tanguay Lab 120 Hour Post-fertilization zebrafish Assay for Circulatory Malformation (AID 2283651)
# Summary of the method: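 Read-out: presence or absence of circulatory malformation at 120 hpf, scored by brightfield microscopy, fitted in the gain-of-signal direction against DMSO baseline. Wild-type 5D larvae were exposed from 6 hpf after enzymatic chorion removal.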
# [11] = Tanguay_ZF_120hpf_SWIM_legacy: (Legacy) Oregon State University Tanguay Lab 120 Hour Post-fertilization zebrafish Assay for Swim Bladder Malformation (AID 2283654);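 further: swim bladder malformation in each larva scored yes or no under brightfield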
# Summary of the method: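 Dechorionated wild-type Tropical 5D zebrafish embryos, one per well from 6 hpf, were statically exposed at 28C until 120 hpf in 0.64% DMSO. Swim bladder malformation scored as present/absent by brightfield microscopy; not scored in dead larvae.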
# [12] = Tanguay_ZF_120hpf_TRUN_legacy: (Legacy) Oregon State University Tanguay Lab 120 Hour Post-fertilization zebrafish Assay for Truncated Body (AID 2283655)
# Summary of the method: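 Whole-embryo zebrafish screen: dechorionated 5D embryos, static exposure 6–120 hpf, 28C, sealed foil-covered plates, 0.64% DMSO. Binary truncation call; gain of signal versus DMSO baseline.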
# [13] = Tanguay_ZF_120hpf_NC_legacy: (Legacy) Oregon State University Tanguay Lab 120 Hour Post-fertilization zebrafish Assay for Notochord and Tail Malformation (AID 2283656)
# Summary of the method: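 Dechorionated Tropical 5D wild-type zebrafish embryos, one per well from 6 hpf, statically exposed to 120 hpf at 28C in 0.64% DMSO final. Notochord distortion scored present/absent by brightfield; dead embryos excluded.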
# [14] = Tanguay_ZF_120hpf_TR_legacy: (Legacy) Oregon State University Tanguay Lab 120 Hour Post-fertilization zebrafish Assay for Touch Response (AID 2283667)
# Summary of the method: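 Tropical 5D wild-type zebrafish embryos statically exposed to 120 hpf at 28°C, sealed and dark-covered, 0.64% DMSO final; touch response scored as present/absent by brightfield microscopy at 120 hpf. Trimethyltin chloride 5 uM positive control; dead embryos not scored.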
# [15] = STM_H9_OrnCyssISnorm_ratio: Stemina devTOX quickPredict H9 human embryonic stem cell (hESC)-based Assay for Ornithine (ORN):Cystine (CYSS) Ratio (AID 2283714)
# Summary of the method: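 Undifferentiated H9 hESCs exposed 72 h, media and compound replaced every 24 h; final 24-h conditioned media deproteinized and analysed by UPLC-HRMS against C13 spike-ins. Value is the internal-standard-normalized ORN/CYSS ratio versus 0.1% DMSO.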
# [16] = molecular target: human Ephrin type-A Receptor 1 (EphA1), EPHA1 (gene 2041) (UniProt P21709); assay: NVS_ENZ_hEphA1: NovaScreen (NVS) Enzymatic Assay for human Ephrin type-A Receptor 1 (EphA1) (AID 2283158);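 further: activity is signal loss versus DMSO meaning EphA1 kinase inhibition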
# Summary of the method: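 Recombinant kinase, fluorescent substrate, mobility-shift separation, fluorescence read at 1 h. Single-point duplicates at 25 uM; hits (e.g., ≥30% inhibition) run singleton concentration-response, max 50 uM. DMSO = negative control/baseline.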
# [17] = Tanguay_ZF_120hpf_CFIN_legacy: (Legacy) Oregon State University Tanguay Lab 120 Hour Post-fertilization zebrafish Assay for Caudal Fin Malformation (AID 2283649)
# Summary of the method: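 Dechorionated 5D wild-type zebrafish, static exposure 6–120 hpf, 28C, sealed and dark, 0.64% v/v DMSO final. Binary fin-malformation call at 120 hpf, brightfield; gain of signal vs DMSO baseline.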
# [18] = ACEA_AR_antagonist_AUC_viability: ACEA Biosciences xCELLigence Real-Time Cell Analysis on Androgen Receptor Antagonism for Viability (AID 2283776);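 further: 22Rv1 human prostate cancer cells growing on impedance electrode plates; area under impedance growth curve at 80 h after dosing as viability; hits lower the growth signal relative to DMSO meaning cytotoxicity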
# Summary of the method: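 Viability endpoint from label-free cell-index monitoring: 22Rv1 cultures treated with an eight-point 1:4 dilution series starting at 100 uM final, AUC at 80 h fitted against DMSO.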
# [19] = Tanguay_ZF_120hpf_BRAI_legacy: (Legacy) Oregon State University Tanguay Lab 120 Hour Post-fertilization zebrafish Assay for Brain Malformation (AID 2283641)
# Summary of the method: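 Read-out: binary brain morphology call at 120 hpf (brightfield), fitted in gain-of-signal direction vs DMSO. Wild-type Tropical 5D embryos, static exposure, 28C, 0.64% DMSO final; 5uM trimethyltin chloride as positive control.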
# [20] = Tanguay_ZF_120hpf_YSE_legacy: (Legacy) Oregon State University Tanguay Lab 120 Hour Post-fertilization zebrafish Assay for Yolk Sac Edema (AID 2283634);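 further: actives raise the incidence of yolk sac edema above the DMSO baseline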
# Summary of the method: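 Binary brightfield scoring of yolk sac edema at 120 hpf; DMSO baseline, gain-of-signal fitting. Dechorionated 5D larvae, one per well, static exposure 6–120 hpf, 28C, 0.64% DMSO. Dead embryos not scored.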
smiles,measurement,setting,value
Cc1ccc(S(=O)(=O)O)cc1,AC50,[1],inconclusive: 50 µM
same,AC50,[2],inconclusive: 0.000239 µM
same,outcome,[3],inactive
Oc1ccc(C(c2ccc(O)cc2)C(Cl)(Cl)Cl)cc1,outcome,[4],inactive
same,AC50,[5],inconclusive: 87.4 µM
same,AC50,[6],inconclusive: 88.2 µM
same,outcome,[7],inactive
same,AC50,[8],inconclusive: 187 µM
same,AC50,[9],active: 86.3 µM
same,AC50,[10],active: 202 µM
same,AC50,[11],active: 202 µM
same,AC50,[12],active: 69.5 µM
same,outcome,[13],inactive
same,AC50,[14],inconclusive: 202 µM
same,AC50,[15],inconclusive: 0.992 µM
same,AC50,[3],inconclusive: 0.000217 µM
CCOCCOCC,AC50,[16],inconclusive: 26.1 µM
CCOC(=O)NCCOc1ccc(Oc2ccccc2)cc1,outcome,[16],inactive
same,AC50,[5],active: 11.7 µM
same,AC50,[9],inconclusive: 48.1 µM
same,outcome,[17],inactive
same,outcome,[11],inactive
same,AC50,[12],inconclusive: 100 µM
same,outcome,[13],inactive
same,outcome,[14],inactive
same,AC50,[18],active: 27.2 µM
CCCCOc1ccc(N)cc1,outcome,[1],inactive
same,AC50,[4],inconclusive: 0.247 µM
same,AC50,[6],active: 36.9 µM
c1ccc2scnc2c1,AC50,[2],inconclusive: 0.0002 µM
same,AC50,[3],inconclusive: 0.0002 µM
CCCCC(=O)O,AC50,[1],inconclusive: 50 µM
same,AC50,[6],inconclusive: 16.4 µM
CCC(C)(CCCC(C)C)OC(C)=O (centres undefined),outcome,[5],inactive
CCN(CC)C(=O)N(CC)CC,AC50,[16],active: 25 µM
O=C(O)Cc1cccc2ccccc12,AC50,[5],inconclusive: 50 µM
same,AC50,[6],inconclusive: 11.6 µM
same,outcome,[2],inactive
same,AC50,[3],inconclusive: 100 µM
CC(=O)CCC(C)C,AC50,[6],inconclusive: 50 µM
CCOC(=O)CC(CC(=O)OCC)(OC(C)=O)C(=O)OCC,outcome,[19],inactive
same,AC50,[12],inconclusive: 41 µM
same,AC50,[13],inconclusive: 120 µM
same,outcome,[14],inactive
Oc1ccc2ccccc2c1,AC50,[7],active: 61.7 µM
same,AC50,[8],active: 47.3 µM
same,AC50,[17],active: 10.4 µM
same,AC50,[14],active: 33.6 µM
same,outcome,[18],inactive
CC(=O)OC[C@H]1O[C@@](COC(C)=O)(O[C@H]2O[C@H](COC(C)=O)[C@@H](OC(C)=O)[C@H](OC(C)=O)[C@H]2OC(C)=O)[C@@H](OC(C)=O)[C@@H]1OC(C)=O,AC50,[11],inconclusive: 26.5 µM
same,outcome,[12],inactive
COc1ccc(/C=C/S(=O)(=O)NC(=O)c2ccc(C)cc2Cl)cc1,AC50,[20],inconclusive: 202 µM
same,AC50,[7],inconclusive: 97.5 µM
same,outcome,[11],inactive
Cc1cn([C@H]2C=C[C@@H](CO)O2)c(=O)[nH]c1=O,AC50,[6],inconclusive: 50 µM
same,AC50,[17],inconclusive: 1.86 µM
same,AC50,[12],inconclusive: 74.9 µM
CCc1ccc(O)c(C(C)(C)C)c1,AC50,[4],inconclusive: 25 µM
same,outcome,[7],inactive
same,outcome,[9],inactive
same,outcome,[3],inactive
C[Si](O[Si](C)(C)C)O[Si](C)(C)C,outcome,[1],inactive
same,AC50,[5],inconclusive: 12.7 µM
same,AC50,[6],inconclusive: 16.1 µM
Cc1ncc(CO)c(CO)c1O,AC50,[5],inconclusive: 0.392 µM
same,AC50,[2],inconclusive: 100 µM
CC1=CC(C)C(C=O)C(C)C1 (centres undefined) (tested in a mixture with another compound),AC50,[16],inconclusive: 6.63 µM
COc1cc(C=O)ccc1O,outcome,[1],inactive
same,AC50,[6],inconclusive: 50 µM
same,AC50,[7],active: 60.5 µM
same,AC50,[8],active: 59.2 µM
same,AC50,[19],active: 44.7 µM
same,AC50,[10],inconclusive: 7.22 µM
same,AC50,[12],active: 50 µM
same,outcome,[13],inactive
same,AC50,[14],inconclusive: 144 µM
same,AC50,[18],inconclusive: 0.0128 µM
same,outcome,[2],inactive
same,AC50,[3],inconclusive: 0.0677 µM
Cc1cc(Cc2ccc(N)c(C)c2)ccc1N,outcome,[15],inactive
Cc1c(C(=O)O)c(O)cc2c1C(=O)c1c(O)c([C@@H]3O[C@H](CO)[C@@H](O)[C@H](O)[C@H]3O)c(O)c(O)c1C2=O,AC50,[6],inconclusive: 50 µM
same,AC50,[8],inconclusive: 185 µM
same,AC50,[19],inconclusive: 4.53 µM
same,AC50,[10],inconclusive: 21.8 µM
same,outcome,[11],inactive
CC(=O)CC(c1ccccc1)c1c(O)c2ccccc2oc1=O (centres undefined),AC50,[7],inconclusive: 36.2 µM
same,AC50,[8],inconclusive: 79.1 µM
same,AC50,[19],inconclusive: 26.2 µM
same,AC50,[13],inconclusive: 24.8 µM
same,AC50,[15],inconclusive: 9.92 µM
same,outcome,[2],inactive
same,AC50,[3],inconclusive: 100 µM
CCC(=O)/C=C/C1C(C)=CCCC1(C)C (centres undefined),AC50,[2],inconclusive: 0.00043 µM
COc1cc(Cl)c(OC)cc1N,AC50,[16],inconclusive: 6.76 µM

# Exported tab-delimited: part of the list above.
smiles	measurement	setting	value
CCOC(=O)NCCOc1ccc(Oc2ccccc2)cc1	outcome	[16]	inactive
same	AC50	[5]	active: 11.7 µM
same	AC50	[9]	inconclusive: 48.1 µM
same	outcome	[17]	inactive
